Source: patent US20220073650A1
These are yes or no findings as the source states them, for the method shown. Some binding calls cover weakened binding; strength is not graded here.

The chains behind the UniProt entries cited, without tags or fusion partners. Where a name states a change or a piece, a line headed by the entry shows the natural chain unless it says otherwise. A line that says so, or that is headed by a name, gives the form on record, which may keep a tag or linker. Residues count along the entry.
recombinant N-terminal Huntingtin fragment recHTT610 (P42858, residues 1-610): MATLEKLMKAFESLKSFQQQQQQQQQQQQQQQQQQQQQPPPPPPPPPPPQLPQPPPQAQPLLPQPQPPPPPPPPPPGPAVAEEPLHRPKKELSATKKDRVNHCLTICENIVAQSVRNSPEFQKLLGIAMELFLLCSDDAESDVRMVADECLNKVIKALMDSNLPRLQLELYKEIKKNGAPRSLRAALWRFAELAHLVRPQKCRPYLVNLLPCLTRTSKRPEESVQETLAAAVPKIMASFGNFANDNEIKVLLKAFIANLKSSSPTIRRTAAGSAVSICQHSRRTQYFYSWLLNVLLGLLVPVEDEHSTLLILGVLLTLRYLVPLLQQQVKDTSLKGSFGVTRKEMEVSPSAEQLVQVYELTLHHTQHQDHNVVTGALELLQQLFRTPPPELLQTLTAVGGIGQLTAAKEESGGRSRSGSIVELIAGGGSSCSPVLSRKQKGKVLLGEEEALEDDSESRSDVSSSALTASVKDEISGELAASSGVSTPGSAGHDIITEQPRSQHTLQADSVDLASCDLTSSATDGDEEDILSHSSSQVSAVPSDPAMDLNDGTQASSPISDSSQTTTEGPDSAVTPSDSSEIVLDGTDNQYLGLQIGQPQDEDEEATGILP
recombinant mutant HTT with an extended 82 amino acids long poly Q stretch (mutHTT610 Q82) (P42858, form named): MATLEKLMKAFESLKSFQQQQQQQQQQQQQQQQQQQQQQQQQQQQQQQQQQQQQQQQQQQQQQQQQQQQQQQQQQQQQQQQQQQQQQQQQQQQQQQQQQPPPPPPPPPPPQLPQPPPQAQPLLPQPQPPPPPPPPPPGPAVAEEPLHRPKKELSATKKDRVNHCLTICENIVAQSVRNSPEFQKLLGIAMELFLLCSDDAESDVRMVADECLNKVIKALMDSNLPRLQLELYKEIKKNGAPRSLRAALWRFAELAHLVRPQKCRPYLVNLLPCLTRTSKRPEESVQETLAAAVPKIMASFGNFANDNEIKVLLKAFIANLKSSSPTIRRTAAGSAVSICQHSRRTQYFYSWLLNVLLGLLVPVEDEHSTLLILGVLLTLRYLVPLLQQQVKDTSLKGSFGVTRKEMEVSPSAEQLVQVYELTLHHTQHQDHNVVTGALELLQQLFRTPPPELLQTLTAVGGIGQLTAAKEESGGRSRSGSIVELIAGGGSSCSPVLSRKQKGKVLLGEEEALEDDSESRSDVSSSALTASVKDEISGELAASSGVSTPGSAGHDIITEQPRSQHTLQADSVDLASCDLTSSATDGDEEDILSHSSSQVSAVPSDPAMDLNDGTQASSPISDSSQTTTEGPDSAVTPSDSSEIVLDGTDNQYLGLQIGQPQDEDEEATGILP

B1: monoclonal antibody PRR13 (antibody, V domains shown)
VH: EVQLQQSAPELVKPGASVKMSCKASGYSFTDFYMKWVKQSHGKGLEWIGDIDPKNGDTFYNQKFKGRATLTVDKSSSTAYMQLNSLTTEDSAVYYCATYYGYTMDYWGQGTSVTVSS
VL: QIVLTQSPAIMSASLGERVTMTCTASSSVTSSYLHWYQQKPGSSPKLWIYSTSNLASGVPARFSGSGSGTSYSLTISSMEAEDAATYYCHQYRRPPRTFGGGTKLEIKR
B2: monoclonal antibody C6-17 (antibody, V domains shown)
VH: EVQLQQSGPELVKPGASVKISCKTSGYTFTEYTMHWVKQSHGKSLEWIGGINPNNGGTRYNQKFKGKATLTVDRSSSTAYMELRSLTSEDSAVYYCASLDGRDYWGQGTTLTVSS
VL: DIVMSQSPSSLAVSAGEKVTMSCKSSQSLLNSRTRKNYLAWYQQKPGQSPKLLIYWASTRESGVPDRFTGSGSGTDFTLTISSVQAEDLAVYSCKQSYNLLTFGAGTKLELKR
B3: PRR13 FAB (Fab, V domains shown)
VH: B1 VH
VL: B1 VL
B4: C6-17 FAB (Fab, V domains shown)
VH: B2 VH
VL: B2 VL

Columns and labels:
[1] = target: recombinant N-terminal Huntingtin fragment recHTT610 (human) (UniProt P42858); assay: depletion from spiked human serum by bead-bound antibody, read by capture ELISA
[2] = target: recombinant mutant HTT with an extended 82 amino acids long poly Q stretch (mutHTT610 Q82) (UniProt P42858); assay: ELISA on directly coated supernatant of mutHTT610 Q82-expressing HEK cells
[3] = target: recombinant N-terminal Huntingtin fragment recHTT610 (human) (UniProt P42858); assay: recHTT610 capture ELISA
[4] = target: recombinant N-terminal Huntingtin fragment recHTT610 (human) (UniProt P42858); assay: on-beads ELISA, capture from spiked human serum, anti V5 detection
[5] = target: recombinant N-terminal Huntingtin fragment recHTT610 (human) (UniProt P42858); assay: depletion from spiked human serum by bead-bound antibody
[6] = target: recombinant N-terminal Huntingtin fragment recHTT610 (human) (UniProt P42858); assay: protein capture ELISA, recombinant Huntingtin-specific signal against control extract
[7] = target: recombinant N-terminal Huntingtin fragment recHTT610 (human) (UniProt P42858); assay: rec HTT610 capture ELISA with Fab-containing supernatant

Row | Binder | binding [1] | binding [2] | binding [3] | binding [4] | binding [5] | binding [6] | binding [7]
1 | B1 | binds | binds | binds | binds | binds |  | 
2 | B2 | binds |  |  | binds | binds | binds | 
3 | B3 |  |  |  |  |  |  | binds
4 | B4 |  |  |  |  |  |  | binds
